The list shows a part of the results.

The test addresses T1, OsSMF1 (Oryza sativa, UniProt Q6ZLB0 1-436).
T1 sequence: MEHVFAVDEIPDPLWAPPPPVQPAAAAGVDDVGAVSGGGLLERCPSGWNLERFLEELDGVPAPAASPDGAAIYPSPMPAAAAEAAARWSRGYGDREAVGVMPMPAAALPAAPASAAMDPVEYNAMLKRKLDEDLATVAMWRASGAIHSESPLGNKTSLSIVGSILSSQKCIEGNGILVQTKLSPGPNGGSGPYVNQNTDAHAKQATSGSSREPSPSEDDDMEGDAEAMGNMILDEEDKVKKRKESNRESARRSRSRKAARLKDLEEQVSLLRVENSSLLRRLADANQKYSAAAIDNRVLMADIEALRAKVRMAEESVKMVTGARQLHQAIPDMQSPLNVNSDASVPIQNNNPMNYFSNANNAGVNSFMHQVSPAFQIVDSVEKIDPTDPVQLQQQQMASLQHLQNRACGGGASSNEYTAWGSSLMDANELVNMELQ
The experiment in a line: protein-binding microarray (RPBM); PBS, 2% BSA, 51.3 ng/ul salmon testes DNA, 50 uM zinc acetate, 200 nM TF, 25 C, 1 h; high values mean tight binding. To be noted: protein: recombinant; tags: N-terminal polyhistidine and DsRed monomer fusion (pET32a); chain copies: 2; label: CyDye5-dUTP incorporated in the synthesized complementary strand; 3' TTTTT single-stranded linker to array surface; dsDNA, one strand shown. In a few lines:
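In PBS with 2% BSA, salmon testes DNA and 50 µM zinc acetate, 200 nM protein was incubated on a custom Agilent array at 25 °C for 1 h and then washed off. The array had been made double-stranded by primer extension with Cy5-dUTP and blocked with 2% BSA. The proteins were transcription factors fused N-terminally to polyhistidine and DsRed, expressed in E. coli BL21-CodonPlus and purified on Ni–NTA. The binding signal is per-feature fluorescence intensity (arbitrary units) from an Axon 4000B scanner.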
For “AGGACGTAGGAGGGCTTCCTGCTCTGCTGGTGACGTGCCTCGGAGTCACCTAGTGCAG”, the binding signal is 12400 fluorescence intensity (a.u.).

“CCCGTTGCAAATAACTGTGTCAGCGCCCACGTCATCACCGCGGAGTCACCTAGTGCAG”: the binding signal is 25900 fluorescence intensity (a.u.).

As for “GGTCCGACCTTTTATTTTGCTTCCAAGTGCCACATCACCGCGGAGTCACCTAGTGCAG”, the binding signal is 17600 fluorescence intensity (a.u.).

As to “AGAAAATGTGGAATGACGCAAATGCCCTTCTGCCTCCTCGCGGAGTCACCTAGTGCAG”, the binding signal is 5440 fluorescence intensity (a.u.).

As for “GTGACGCCTGGCGGCGAGCTCCGGCGCCGGCCACCTCACCCGGAGTCACCTAGTGCAG”, the binding signal was 3800 fluorescence intensity (a.u.).

Turning to “TTATAGATTTCGTTAGGTCTACATGTCACATCGGATACGACGGAGTCACCTAGTGCAG”, the binding signal was 4590 fluorescence intensity (a.u.).

For the sequence “CACCACACACCTGCCGGCCCATCTGCCTACGCGTCCTGTACGGAGTCACCTAGTGCAG”, the binding signal was 3380 fluorescence intensity (a.u.).

Turning to “CGAAATAAGTAATTTACAGGGCTTTCTCTCTCTCGCTCACCGGAGTCACCTAGTGCAG”, the binding signal was 64400 fluorescence intensity (a.u.).

As to “GCCGTTAGTGCCACGTGGCGCCTTCCCATTCGACCGCCGCCGGAGTCACCTAGTGCAG”, the binding signal is 37400 fluorescence intensity (a.u.).

For the sequence “AGTCGGCAACAGCAGAAGTCCACGTACTGCTCAAGGGACACGGAGTCACCTAGTGCAG”, the binding signal is 3240 fluorescence intensity (a.u.).

Regarding “GGGTTGGGTGGGTGCTGTAATATGGGGAGATACTGACTACCGGAGTCACCTAGTGCAG”, the binding signal is 3450 fluorescence intensity (a.u.).

With “CCAATATACGTGGGCCGCATGTAAGCCTAAGTGGGCCGTCCGGAGTCACCTAGTGCAG”, the binding signal was 3370 fluorescence intensity (a.u.).

Take “CTCTCTACTCTCGCCTGACATGAGCTGACATGGCATGCCACGGAGTCACCTAGTGCAG”: the binding signal was 9830 fluorescence intensity (a.u.).

With “GGGTAAGGGTGCTCCAGATTCTTAGGATATCTGATATCTTCGGAGTCACCTAGTGCAG”, the binding signal was 3190 fluorescence intensity (a.u.).

Turning to “CCTAGCTGCCCCTCGTGTCCACGTCCTTCAAAATGGTTAACGGAGTCACCTAGTGCAG”, the binding signal is 5120 fluorescence intensity (a.u.).

On to “AGCTCTGCTACATGGTTACGTGTAGCCACAGGTCGTGCTACGGAGTCACCTAGTGCAG”, for which the binding signal is 5190 fluorescence intensity (a.u.).

In the case of “CGGCCGCCATGGAGGCTTATATTGAGATGGAGAGAGGATACGGAGTCACCTAGTGCAG”, the binding signal was 25800 fluorescence intensity (a.u.).

Turning to “CCTAACCGCCCAGCAGAGGCAAAGTGTGGTCGAAACCTAGCGGAGTCACCTAGTGCAG”, the binding signal is 49500 fluorescence intensity (a.u.).

On to “GGACCCAGAGCGTACATGCATACCCCTGTCACGGTGGGGCCGGAGTCACCTAGTGCAG”, for which the binding signal is 4690 fluorescence intensity (a.u.).

Turning to “GGTTTATAATCTGAGTCATATGAATGCTCAAGCTGGGAACCGGAGTCACCTAGTGCAG”, the binding signal was 6820 fluorescence intensity (a.u.).

On to “CGGACAGCCATCTCCCATCCAGTCACATCCACCCAATCAACGGAGTCACCTAGTGCAG”, for which the binding signal is 5500 fluorescence intensity (a.u.).

For “AGCCCATCCCTTCCCTTCTGCATCGTACGGCCAGGATCTCCGGAGTCACCTAGTGCAG”, the binding signal is 3410 fluorescence intensity (a.u.).

Turning to “AAAATATGACTATCAAAAGTAGATGGAGGGAGTATTTTGGCGGAGTCACCTAGTGCAG”, the binding signal is 14700 fluorescence intensity (a.u.).

In the case of “CCGGCGCATCCGTGCATGGTAATCACGTGCACCCCACGCCCGGAGTCACCTAGTGCAG”, the binding signal is 3300 fluorescence intensity (a.u.).

Consider “ATGTCCAGATAAGAGCTCCACCTCTGACTCACACACACATCGGAGTCACCTAGTGCAG”, for which the binding signal was 3940 fluorescence intensity (a.u.).

On to “GAAGAAAATTCTCTCACACGTCGACTATAAATACCCCTCTCGGAGTCACCTAGTGCAG”, for which the binding signal is 6470 fluorescence intensity (a.u.).

Consider “TCGTGCTCCCTTGTCAAAGTCCAATACGCCGGAGCTCTCACGGAGTCACCTAGTGCAG”, for which the binding signal is 19700 fluorescence intensity (a.u.).

“AAGCTACCGACGATGCATATGTTGCGCTCTGTAAATTAAACGGAGTCACCTAGTGCAG”: the binding signal was 11300 fluorescence intensity (a.u.).

“GCCGCCGCCGCCGCCGCCGCCACCGCCACCGCCACCGCCACGGAGTCACCTAGTGCAG”: the binding signal is 3230 fluorescence intensity (a.u.).

Turning to “GTCCTACTTGCTGACTGTTACTCCTTGTGGCTTCTAATGTCGGAGTCACCTAGTGCAG”, the binding signal was 4480 fluorescence intensity (a.u.).

“CTCTACCGATGCCTCCAAGAAAACCCTAGCGCCGCTCCTCCGGAGTCACCTAGTGCAG”: the binding signal was 25700 fluorescence intensity (a.u.).

“ACTGTGCTTCTTCTCCGTGTTGCCACCTCATCGCCATCGCCGGAGTCACCTAGTGCAG”: the binding signal is 13900 fluorescence intensity (a.u.).

For “GACGGCGCGGTCGACCCACCGTCTGCCACGTCAGCTTGCCCGGAGTCACCTAGTGCAG”, the binding signal was 50100 fluorescence intensity (a.u.).

In the case of “TTATTCTACGTCAGTTAGAGTACCGCCCGCTTCATCTTCGCGGAGTCACCTAGTGCAG”, the binding signal was 3540 fluorescence intensity (a.u.).

As to “AATAACAACACGTAAGGTACGGGTTTAGGTTGATTGCCCTCGGAGTCACCTAGTGCAG”, the binding signal is 5980 fluorescence intensity (a.u.).

“TACATCAGCTTCACTAGATTAATTGGCACATCATCTGACTCGGAGTCACCTAGTGCAG”: the binding signal was 3210 fluorescence intensity (a.u.).

For “CCGGCAGTCCCCACACCTCACGCGCCTCCGGCGCCTCCCCCGGAGTCACCTAGTGCAG”, the binding signal was 3860 fluorescence intensity (a.u.).

For “GGGGAGGCGGGGTGGCGGGAGGGAAGGCGGCGGCGGCGCCCGGAGTCACCTAGTGCAG”, the binding signal is 6090 fluorescence intensity (a.u.).

With “TGGCATGCATGACACTAAAGTCATCATCTTAGTGCGCATACGGAGTCACCTAGTGCAG”, the binding signal is 3390 fluorescence intensity (a.u.).

Consider “CGCCGCCGCCAAAGCCGCAAGCCAAAAGGGGAACACCCGCCGGAGTCACCTAGTGCAG”, for which the binding signal was 27800 fluorescence intensity (a.u.).

“CCTACAGAGTTGCCGTCTGCATGCCTGCGTGGAATCATCTCGGAGTCACCTAGTGCAG”: the binding signal was 5390 fluorescence intensity (a.u.).

Turning to “CAACCAACCCCACCACGCGTCCTGCATAATCACCGTCCGTCGGAGTCACCTAGTGCAG”, the binding signal is 4220 fluorescence intensity (a.u.).

As for “CAATGGGATGACTGCGGTGAATTGCAAGACCAATGGGATGCGGAGTCACCTAGTGCAG”, the binding signal is 3370 fluorescence intensity (a.u.).

Turning to “GATTGGTGGCCTGCTTGACACCAACGCGCGCGCGCTGCCGCGGAGTCACCTAGTGCAG”, the binding signal is 32400 fluorescence intensity (a.u.).

With “AACTAATACGTAGGCACTATCGTGGCATGCCACATCAACGCGGAGTCACCTAGTGCAG”, the binding signal was 8150 fluorescence intensity (a.u.).

Take “TGATGATATGGAGTGAAGCCTTGGTAGAATTTCTGGGAATCGGAGTCACCTAGTGCAG”: the binding signal is 22100 fluorescence intensity (a.u.).

Regarding “CATCACAGAATATTAATCAAAACACACGTTGATCTTACACCGGAGTCACCTAGTGCAG”, the binding signal is 3360 fluorescence intensity (a.u.).

As for “CACGCCACCACCACCAACCCATCCCAATCTCTCTCTCTCTCGGAGTCACCTAGTGCAG”, the binding signal was 19800 fluorescence intensity (a.u.).

For “CGAGCCTAGCCCCACCACCTAGATGCTACTTTGATCAACCCGGAGTCACCTAGTGCAG”, the binding signal is 11700 fluorescence intensity (a.u.).

As for “AAAACATAGCACACGAATTATCCACCACAGCCACCATCGACGGAGTCACCTAGTGCAG”, the binding signal was 3300 fluorescence intensity (a.u.).

Regarding “TCCAAAATATTAGCATGGCACAGATTGGCACTACCCTTGTCGGAGTCACCTAGTGCAG”, the binding signal is 3280 fluorescence intensity (a.u.).

With “GTCAAATTAGCCACGTATGCGCCACGACAGCTAAAATCACCGGAGTCACCTAGTGCAG”, the binding signal was 14200 fluorescence intensity (a.u.).

Regarding “CTACCATCTATCATGTGTGCGTGTGAATTGTGATGCAGAACGGAGTCACCTAGTGCAG”, the binding signal was 4600 fluorescence intensity (a.u.).

On to “ATCCGGCCCGATTTGGCGGAGGGATTCGAACGCGGCGTATCGGAGTCACCTAGTGCAG”, for which the binding signal was 3190 fluorescence intensity (a.u.).

The values are drawn from paper PMC7819943, “Rice protein-binding microarrays: a tool to detect cis-acting elements near promoter regions in rice”.
